These are yes or no findings as the source states them, for the method shown. Binding seen in cells or lysates may run through a third protein. Some results given as binding are weak or reduced against the parent protein; the word gives no strength.
Experiments:
[1] = biological target: nucleolin (human (endogenous in hTert-Fibroblasts, SH-SY5Y, HeLa)) (UniProt P19338); test: proximity ligation; in situ PLA (Duolink) in SH-SY5Y neuroblastoma cells; antibodies to SMN and nucleolin
[2] = biological target: nucleolin (human (endogenous in hTert-Fibroblasts, SH-SY5Y, HeLa)) (UniProt P19338); test: proximity ligation; in situ PLA (Duolink) in fixed, permeabilized hTert-Fibroblasts; rabbit polyclonal anti-SMN and mouse monoclonal anti-nucleolin
[3] = biological target: nucleolin (human (endogenous in hTert-Fibroblasts, SH-SY5Y, HeLa)) (UniProt P19338); test: co-IP; cellular extracts of hTert-Fibroblasts in IP buffer (50 mM Tris-HCl pH 7.5, 250 mM NaCl, 5 mM EDTA, 0.1% Triton X-100, 5% glycerol, RNase inhibitors); nucleolin monoclonal antibody-conjugated beads, overnight at 4 °C; mouse IgG beads as negative control; Western blot for SMN
[4] = biological target: nucleolin (human (endogenous in hTert-Fibroblasts, SH-SY5Y, HeLa)) (UniProt P19338); test: proximity ligation; PlaLock assay (in situ PLA combined with a padlock probe to mTOR mRNA) in fixed hTert-Fibroblasts; antibodies to SMN and nucleolin pre-incubated with PLA probes PLUS/MINUS, overnight at 37 °C
[5] = biological target: nucleolin (human (endogenous in hTert-Fibroblasts, SH-SY5Y, HeLa)) (UniProt P19338); test: co-IP; protein part of the RIP assay: extracts of siC- and siSMN-transfected hTert-Fibroblasts, nucleolin monoclonal antibody-conjugated beads; mouse IgG beads as control; immunoblot for nucleolin and SMN
[6] = biological target: nucleolin (human (endogenous in hTert-Fibroblasts, SH-SY5Y, HeLa)) (UniProt P19338); test: proximity ligation; in situ PLA (Duolink) in HeLa cells; antibodies to SMN and nucleolin

Protein sequences, listed by entry. Tags and fused reporters are not part of them.
UniProt P19338: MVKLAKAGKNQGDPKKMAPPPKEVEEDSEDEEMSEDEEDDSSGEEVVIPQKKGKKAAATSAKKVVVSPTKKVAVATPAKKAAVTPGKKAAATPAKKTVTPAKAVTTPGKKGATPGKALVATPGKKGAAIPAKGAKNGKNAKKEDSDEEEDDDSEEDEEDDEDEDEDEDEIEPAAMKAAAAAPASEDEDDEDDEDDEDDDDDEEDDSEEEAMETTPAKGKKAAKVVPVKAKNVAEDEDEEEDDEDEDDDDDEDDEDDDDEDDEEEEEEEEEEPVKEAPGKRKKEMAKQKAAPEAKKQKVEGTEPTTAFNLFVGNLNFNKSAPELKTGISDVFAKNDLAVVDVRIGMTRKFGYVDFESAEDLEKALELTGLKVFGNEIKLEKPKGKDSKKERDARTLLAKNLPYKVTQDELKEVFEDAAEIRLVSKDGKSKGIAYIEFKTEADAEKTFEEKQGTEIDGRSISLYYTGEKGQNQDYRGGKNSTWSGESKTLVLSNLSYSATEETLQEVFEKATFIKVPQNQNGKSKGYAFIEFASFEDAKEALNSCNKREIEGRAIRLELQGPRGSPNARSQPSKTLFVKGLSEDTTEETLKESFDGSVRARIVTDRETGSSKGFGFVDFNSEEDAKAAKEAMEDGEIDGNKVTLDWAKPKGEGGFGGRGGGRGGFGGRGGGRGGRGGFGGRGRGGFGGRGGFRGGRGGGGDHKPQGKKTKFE
UniProt Q16637: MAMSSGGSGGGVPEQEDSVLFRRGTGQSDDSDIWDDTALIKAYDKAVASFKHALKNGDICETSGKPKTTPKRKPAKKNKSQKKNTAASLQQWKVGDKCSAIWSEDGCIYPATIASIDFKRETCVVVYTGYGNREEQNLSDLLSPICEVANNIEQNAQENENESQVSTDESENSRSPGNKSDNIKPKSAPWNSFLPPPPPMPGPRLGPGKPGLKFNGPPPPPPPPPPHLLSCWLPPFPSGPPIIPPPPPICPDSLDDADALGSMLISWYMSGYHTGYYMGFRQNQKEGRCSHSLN

Measured: binding

Survival Motor Neuron (SMN) protein (from UniProt Q16637 1-294)
binds: all assays above

From publication PMC8616268
